Measured values from article PMC10646090.
Results are given in words; binding and its absence hold for the method and conditions named. In cells and extracts the contact can be indirect. Some entries that bind do so weakly or less than the wild type. For some of these results: Where a sequence is shown, tags or fusion partners need not be part of it.

The chains behind the UniProt entries cited, without tags or fusion partners.
UniProt Q00987: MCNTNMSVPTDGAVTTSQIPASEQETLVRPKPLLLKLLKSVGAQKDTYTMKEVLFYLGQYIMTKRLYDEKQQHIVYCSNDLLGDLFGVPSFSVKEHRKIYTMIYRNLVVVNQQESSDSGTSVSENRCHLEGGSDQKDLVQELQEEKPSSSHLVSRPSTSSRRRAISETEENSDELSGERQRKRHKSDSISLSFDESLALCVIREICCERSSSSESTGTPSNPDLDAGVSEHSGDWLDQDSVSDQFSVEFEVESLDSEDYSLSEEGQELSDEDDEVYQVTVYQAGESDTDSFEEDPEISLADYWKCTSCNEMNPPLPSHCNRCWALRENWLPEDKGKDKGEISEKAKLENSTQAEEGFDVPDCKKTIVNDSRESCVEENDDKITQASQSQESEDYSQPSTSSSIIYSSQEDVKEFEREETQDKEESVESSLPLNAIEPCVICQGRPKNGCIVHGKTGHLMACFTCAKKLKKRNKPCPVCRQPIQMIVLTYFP

T1: human LASS2-GFP (from the recombinant human adenovirus vector overexpressing LASS2, Adv-hLASS2-GFP) (human) (UniProt Q96G23)
T1 sequence: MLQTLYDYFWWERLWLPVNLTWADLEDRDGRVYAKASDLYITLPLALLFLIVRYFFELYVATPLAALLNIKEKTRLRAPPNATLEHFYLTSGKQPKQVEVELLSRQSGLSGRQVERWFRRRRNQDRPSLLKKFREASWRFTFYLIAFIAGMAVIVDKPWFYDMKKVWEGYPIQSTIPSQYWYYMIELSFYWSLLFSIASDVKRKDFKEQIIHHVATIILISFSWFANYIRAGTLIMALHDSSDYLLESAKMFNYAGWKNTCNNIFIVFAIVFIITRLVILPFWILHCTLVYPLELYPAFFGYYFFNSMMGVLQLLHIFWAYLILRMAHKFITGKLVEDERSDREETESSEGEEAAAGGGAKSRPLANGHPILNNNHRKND

T2: LASS2 (endogenous, human hepatoma cells) (human (endogenous in HepG2 and HCCLM3)) (UniProt Q96G23)
T2 sequence: T1 sequence

B1: MDMX (endogenous, human hepatoma cells) (protein, UniProt O15151 1-490)
chain: MTSFSTSAQCSTSDSACRISPGQINQVRPKLPLLKILHAAGAQGEMFTVKEVMHYLGQYIMVKQLYDQQEQHMVYCGGDLLGELLGRQSFSVKDPSPLYDMLRKNLVTLATATTDAAQTLALAQDHSMDIPSQDQLKQSAEESSTSRKRTTEDDIPTLPTSEHKCIHSREDEDLIENLAQDETSRLDLGFEEWDVAGLPWWFLGNLRSNYTPRSNGSTDLQTNQDVGTAIVSDTTDDLWFLNESVSEQLGVGIKVEAADTEQTSEEVGKVSDKKVIEVGKNDDLEDSKSLSDDTDVEVTSEDEWQCTECKKFNSPSKRYCFRCWALRKDWYSDCSKLTHSLSTSDITAIPEKENEGNDVPDCRRTISAPVVRPKDAYIKKENSKLFDPCNSVEFLDLAHSSESQETISSMGEQLDNLSEQRTDTENMEDCQNLLKPCSLCEKRPRDGNIIHGRTGHLVTCFHCARRLKKAGASCPICKKEIQLVIKVFIA

Key:
[1] = biological target: T1, human LASS2-GFP (from the recombinant human adenovirus vector overexpressing LASS2, Adv-hLASS2-GFP) (human); test: co-IP; HepG2, HCCLM3 and HuCCT1 cells transiently transfected with Adv-GFP or Adv-hLASS2-GFP; GFP Nanoselector beads for immunoprecipitation; western blot with anti-GFP, anti-LASS2, anti-MDM2 and anti-MDMX
[2] = biological target: T2, LASS2 (endogenous, human hepatoma cells) (human (endogenous in HepG2 and HCCLM3)); test: proximity ligation; Duolink PLA in situ on fixed, permeabilised HepG2 (WT p53) and HCCLM3 (mutant p53) cells; anti-LASS2 with anti-MDM2 or anti-MDMX overnight at 4 °C; confocal microscopy

Molecule	binding [1]	binding [2]
MDM2 (endogenous, human hepatoma cells) (from UniProt Q00987 1-491)	binds	binds
B1	binds	binds
